Experimental findings from article doi:10.1101/2025.08.19.670962, “Structural basis for binding of RILPL1 to TMEM55B reveals a lysosomal platform for adaptor assembly through a conserved TBM motif” (bioRxiv, 2025) are described below.

Amino acid sequences for entries named in this document (tags omitted). A change or cut given only in a name is not applied to a line headed by its entry. Chains listed by the source or under a name are the forms on record and can include a tag or linker.
Halo-TMEM55B (Q86T03, form named): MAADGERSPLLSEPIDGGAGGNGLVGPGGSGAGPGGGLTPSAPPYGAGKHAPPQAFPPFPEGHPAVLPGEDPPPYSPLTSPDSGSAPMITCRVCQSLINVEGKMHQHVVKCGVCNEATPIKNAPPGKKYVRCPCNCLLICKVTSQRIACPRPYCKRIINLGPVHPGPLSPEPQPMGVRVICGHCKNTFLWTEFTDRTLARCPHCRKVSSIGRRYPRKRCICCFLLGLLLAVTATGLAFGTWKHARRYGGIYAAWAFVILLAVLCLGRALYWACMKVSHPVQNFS
Halo-TMEM55B R151E (Q86T03, form named): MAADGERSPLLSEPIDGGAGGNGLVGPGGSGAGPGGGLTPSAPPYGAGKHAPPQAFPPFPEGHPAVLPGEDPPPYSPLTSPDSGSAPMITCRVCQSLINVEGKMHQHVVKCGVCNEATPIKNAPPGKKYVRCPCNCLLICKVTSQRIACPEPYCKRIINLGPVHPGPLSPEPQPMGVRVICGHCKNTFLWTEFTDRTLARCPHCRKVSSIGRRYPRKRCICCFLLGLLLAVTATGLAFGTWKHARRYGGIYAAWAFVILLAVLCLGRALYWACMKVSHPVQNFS

Test [1] has as its target Halo-TMEM55B (UniProt Q86T03). Kind of test: affinity purification with mass spectrometry; Halo-TMEM55B WT or R151E on HaloLink resin from transfected cells with Rab8A Q67L and LRRK2 Y1699C (or Y1699C D2017A); DIA-MS.
Test [2] deals with Halo-TMEM55B R151E (UniProt Q86T03). The description is as above.

Results are given in words; binding and its absence hold for the method and conditions named. Binding seen in cells or lysates may run through a third protein. A yes stands for co-enrichment or nearness to the bait. Other partners may have been found. For some assays here: A no says only that the protein was not detected with the bait.

B1: BLOC1S2 (protein, UniProt Q6QNY1 1-142)
chain: MAAAAEGVLATRSDEPARDDAAVETAEEAKEPAEADITELCRDMFSKMATYLTGELTATSEDYKLLENMNKLTSLKYLEMKDIAINISRNLKDLNQKYAGLQPYLDQINVIEEQVAALEQAAYKLDAYSKKLEAKYKKLEKR
Consider B1, for which the results for the binding entry in test [1] and in test [2] were “binds” and “no binding”, respectively.

B2: SNX19 (protein, UniProt Q92543 1-992)
chain: MKTETVPPFQETPAGSSCHLNNLLSSRKLMAVGVLLGWLLVIHLLVNVWLLCLLSALLVVLGGWLGSSLAGVASGRLHLERFIPLATCPPCPEAERQLEREINRTIQMIIRDFVLSWYRSVSQEPAFEEEMEAAMKGLVQELRRRMSVMDSHAVAQSVLTLCGCHLQSYIQAKEATAGKNGPVEPSHLWEAYCRATAPHPAVHSPSAEVTYTRGVVNLLLQGLVPKPHLETRTGRHVVVELITCNVILPLISRLSDPDWIHLVLVGIFSKARDPAPCPASAPEQPSVPTSLPLIAEVEQLPEGRASPVAAPVFLSYSEPEGSAGPSPEVEEGHEAVEGDLGGMCEERKVGNNSSHFLQPNVRGPLFLCEDSELESPLSELGKETIMLMTPGSFLSDRIQDALCALESSQALEPKDGEASEGAEAEEGPGTETETGLPVSTLNSCPEIHIDTADKEIEQGDVTASVTALLEGPEKTCPSRPSCLEKDLTNDVSSLDPTLPPVLLSSSPPGPLSSATFSFEPLSSPDGPVIIQNLRITGTITAREHSGTGFHPYTLYTVKYETALDGENSSGLQQLAYHTVNRRYREFLNLQTRLEEKPDLRKFIKNVKGPKKLFPDLPLGNMDSDRVEARKSLLESFLKQLCAIPEIANSEEVQEFLALNTDARIAFVKKPFMVSRIDKMVVSAIVDTLKTAFPRSEPQSPTEELSEAETESKPQTEGKKASKSRLRFSSSKISPALSVTEAQDKILYCLQEGNVESETLSMSAMESFIEKQTKLLEMQPTKAPEKDPEQPPKGRVDSCVSDAAVPAQDPSNSDPGTETELADTALDLLLLLLTEQWKWLCTENMQKFLRLIFGTLVQRWLEVQVANLTSPQRWVQYLLLLQESIWPGGVLPKFPRPVRTQEQKLAAEKQALQSLMGVLPDLVVEILGVNKCRLSWGLVLESLQQPLINRHLIYCLGDIILEFLDLSASVEESAATTSASDTPGNSKRMGVSS
As for B2, the binding entry is “binds” in test [1] and “no binding” in test [2].

B3: JIP3 (in HEK293 lysate) (protein, UniProt Q9UPT6 1-1336)
chain: MMEIQMDEGGGVVVYQDDYCSGSVMSERVSGLAGSIYREFERLIHCYDEEVVKELMPLVVNVLENLDSVLSENQEHEVELELLREDNEQLLTQYEREKALRRQAEEKFIEFEDALEQEKKELQIQVEHYEFQTRQLELKAKNYADQISRLEERESEMKKEYNALHQRHTEMIQTYVEHIERSKMQQVGGNSQTESSLPGRRKERPTSLNVFPLADGTVRAQIGGKLVPAGDHWHLSDLGQLQSSSSYQCPQDEMSESGQSSAAATPSTTGTKSNTPTSSVPSAAVTPLNESLQPLGDYGVGSKNSKRAREKRDSRNMEVQVTQEMRNVSIGMGSSDEWSDVQDIIDSTPELDMCPETRLDRTGSSPTQGIVNKAFGINTDSLYHELSTAGSEVIGDVDEGADLLGEFSVRDDFFGMGKEVGNLLLENSQLLETKNALNVVKNDLIAKVDQLSGEQEVLRGELEAAKQAKVKLENRIKELEEELKRVKSEAIIARREPKEEAEDVSSYLCTESDKIPMAQRRRFTRVEMARVLMERNQYKERLMELQEAVRWTEMIRASREHPSVQEKKKSTIWQFFSRLFSSSSSPPPAKRPYPSVNIHYKSPTTAGFSQRRNHAMCPISAGSRPLEFFPDDDCTSSARREQKREQYRQVREHVRNDDGRLQACGWSLPAKYKQLSPNGGQEDTRMKNVPVPVYCRPLVEKDPTMKLWCAAGVNLSGWRPNEDDAGNGVKPAPGRDPLTCDREGDGEPKSAHTSPEKKKAKELPEMDATSSRVWILTSTLTTSKVVIIDANQPGTVVDQFTVCNAHVLCISSIPAASDSDYPPGEMFLDSDVNPEDPGADGVLAGITLVGCATRCNVPRSNCSSRGDTPVLDKGQGEVATIANGKVNPSQSTEEATEATEVPDPGPSEPETATLRPGPLTEHVFTDPAPTPSSGPQPGSENGPEPDSSSTRPEPEPSGDPTGAGSSAAPTMWLGAQNGWLYVHSAVANWKKCLHSIKLKDSVLSLVHVKGRVLVALADGTLAIFHRGEDGQWDLSNYHLMDLGHPHHSIRCMAVVYDRVWCGYKNKVHVIQPKTMQIEKSFDAHPRRESQVRQLAWIGDGVWVSIRLDSTLRLYHAHTHQHLQDVDIEPYVSKMLGTGKLGFSFVRITALLVAGSRLWVGTGNGVVISIPLTETVVLHRGQLLGLRANKTSPTSGEGARPGGIIHVYGDDSSDRAASSFIPYCSMAQAQLCFHGHRDAVKFFVSVPGNVLATLNGSVLDSPAEGPGPAAPASEVEGQKLRNVLVLSGGEGYIDFRIGDGEDDETEEGAGDMSQVKPVLSKAERSHIIVWQVSYTPE
For B3, the binding entry in test [1] is “binds”.

B4: SNX25 (protein, UniProt Q9H3E2 1-840)
chain: MDKALKEVFDYSYRDYILSWYGNLSRDEGQLYHLLLEDFWEIARQLHHRLSHVDVVKVVCNDVVRTLLTHFCDLKAANARHEEQPRPFVLHACLRNSDDEVRFLQTCSRVLVFCLLPSKDVQSLSLRIMLAEILTTKVLKPVVELLSNPDYINQMLLAQLAYREQMNEHHKRAYTYAPSYEDFIKLINSNSDVEFLKQLRYQIVVEIIQATTISSFPQLKRHKGKETAAMKADLLRARNMKRYINQLTVAKKQCEKRIRILGGPAYDQQEDGALDEGEGPQSQKILQFEDILANTFYREHFGMYMERMDKRALISFWESVEHLKNANKNEIPQLVGEIYQNFFVESKEISVEKSLYKEIQQCLVGNKGIEVFYKIQEDVYETLKDRYYPSFIVSDLYEKLLIKEEEKHASQMISNKDEMGPRDEAGEEAVDDGTNQINEQASFAVNKLRELNEKLEYKRQALNSIQNAPKPDKKIVSKLKDEIILIEKERTDLQLHMARTDWWCENLGMWKASITSGEVTEENGEQLPCYFVMVSLQEVGGVETKNWTVPRRLSEFQNLHRKLSECVPSLKKVQLPSLSKLPFKSIDQKFMEKSKNQLNKFLQNLLSDERLCQSEALYAFLSPSPDYLKVIDVQGKKNSFSLSSFLERLPRDFFSHQEEETEEDSDLSDYGDDVDGRKDALAEPCFMLIGEIFELRGMFKWVRRTLIALVQVTFGRTINKQIRDTVSWIFSEQMLVYYINIFRDAFWPNGKLAPPTTIRSKEQSQETKQRAQQKLLENIPDMLQSLVGQQNARHGIIKIFNALQETRANKHLLYALMELLLIELCPELRVHLDQLKAGQV
For B4, the binding entry in test [1] is “binds”; in test [2] it was “no binding”.

B5: RILPL1 (in HEK293 lysate) (protein, UniProt Q5EBL4 1-403)
chain: MEEERGSALAAESALEKNVAELTVMDVYDIASLVGHEFERVIDQHGCEAIARLMPKVVRVLEILEVLVSRHHVAPELDELRLELDRLRLERMDRIEKERKHQKELELVEDVWRGEAQDLLSQIAQLQEENKQLMTNLSHKDVNFSEEEFQKHEGMSERERQVMKKLKEVVDKQRDEIRAKDRELGLKNEDVEALQQQQTRLMKINHDLRHRVTVVEAQGKALIEQKVELEADLQTKEQEMGSLRAELGKLRERLQGEHSQNGEEEPETEPVGEESISDAEKVAMDLKDPNRPRFTLQELRDVLHERNELKSKVFLLQEELAYYKSEEMEEENRIPQPPPIAHPRTSPQPESGIKRLFSFFSRDKKRLANTQRNVHIQESFGQWANTHRDDGYTEQGQEALQHL
Consider B5, for which, in test [1], the binding result is reported as “binds”.

B6: ZFYVE27 (protein, UniProt Q5T4F4 1-411)
chain: MQTSEREGSGPELSPSVMPEAPLESPPFPTKSPAFDLFNLVLSYKRLEIYLEPLKDAGDGVRYLLRWQMPLCSLLTCLGLNVLFLTLNEGAWYSVGALMISVPALLGYLQEVCRARLPDSELMRRKYHSVRQEDLQRGRLSRPEAVAEVKSFLIQLEAFLSRLCCTCEAAYRVLHWENPVVSSQFYGALLGTVCMLYLLPLCWVLTLLNSTLFLGNVEFFRVVSEYRASLQQRMNPKQEEHAFESPPPPDVGGKDGLMDSTPALTPTEDLTPGSVEEAEEAEPDEEFKDAIEETHLVVLEDDEGAPCPAEDELALQDNGFLSKNEVLRSKVSRLTERLRKRYPTNNFGNCTGCSATFSVLKKRRSCSNCGNSFCSRCCSFKVPKSSMGATAPEAQRETVFVCASCNQTLSK
With B6, the binding result is “binds” in test [1] and “no binding” in test [2].

B7: JIP4 (in HEK293 lysate) (protein, UniProt O60271 1-1321)
chain: MELEDGVVYQEEPGGSGAVMSERVSGLAGSIYREFERLIGRYDEEVVKELMPLVVAVLENLDSVFAQDQEHQVELELLRDDNEQLITQYEREKALRKHAEEKFIEFEDSQEQEKKDLQTRVESLESQTRQLELKAKNYADQISRLEEREAELKKEYNALHQRHTEMIHNYMEHLERTKLHQLSGSDQLESTAHSRIRKERPISLGIFPLPAGDGLLTPDAQKGGETPGSEQWKFQELSQPRSHTSLKVSNSPEPQKAVEQEDELSDVSQGGSKATTPASTANSDVATIPTDTPLKEENEGFVKVTDAPNKSEISKHIEVQVAQETRNVSTGSAENEEKSEVQAIIESTPELDMDKDLSGYKGSSTPTKGIENKAFDRNTESLFEELSSAGSGLIGDVDEGADLLGMGREVENLILENTQLLETKNALNIVKNDLIAKVDELTCEKDVLQGELEAVKQAKLKLEEKNRELEEELRKARAEAEDARQKAKDDDDSDIPTAQRKRFTRVEMARVLMERNQYKERLMELQEAVRWTEMIRASRENPAMQEKKRSSIWQFFSRLFSSSSNTTKKPEPPVNLKYNAPTSHVTPSVKKRSSTLSQLPGDKSKAFDFLSEETEASLASRREQKREQYRQVKAHVQKEDGRVQAFGWSLPQKYKQVTNGQGENKMKNLPVPVYLRPLDEKDTSMKLWCAVGVNLSGGKTRDGGSVVGASVFYKDVAGLDTEGSKQRSASQSSLDKLDQELKEQQKELKNQEELSSLVWICTSTHSATKVLIIDAVQPGNILDSFTVCNSHVLCIASVPGARETDYPAGEDLSESGQVDKASLCGSMTSNSSAETDSLLGGITVVGCSAEGVTGAATSPSTNGASPVMDKPPEMEAENSEVDENVPTAEEATEATEGNAGSAEDTVDISQTGVYTEHVFTDPLGVQIPEDLSPVYQSSNDSDAYKDQISVLPNEQDLVREEAQKMSSLLPTMWLGAQNGCLYVHSSVAQWRKCLHSIKLKDSILSIVHVKGIVLVALADGTLAIFHRGVDGQWDLSNYHLLDLGRPHHSIRCMTVVHDKVWCGYRNKIYVVQPKAMKIEKSFDAHPRKESQVRQLAWVGDGVWVSIRLDSTLRLYHAHTYQHLQDVDIEPYVSKMLGTGKLGFSFVRITALMVSCNRLWVGTGNGVIISIPLTETNKTSGVPGNRPGSVIRVYGDENSDKVTPGTFIPYCSMAHAQLCFHGHRDAVKFFVAVPGQVISPQSSSSGTDLTGDKAGPSAQEPGSQTPLKSMLVISGGEGYIDFRMGDEGGESELLGEDLPLEPSVTKAERSHLIVWQVMYGNE
As for B7, in test [1], the binding entry is on record as “binds”.
